Reference: PubChem BioAssay AID493014 (National Center for Advancing Translational Sciences (NCATS), 2011)
Some of the results follow. Shown are side measurements of this screen, not its main read-out; they come without a call. The list favours compounds with an active or inconclusive main result. Potencies come from curve fits of mixed quality, noted in brackets.

Experiment: qHTS Assay to Find Inhibitors of Chronic Active B-Cell Receptor Signaling
Conditions: ABC-DLBCL IkBa-CBG/CBR reporter, luminescence ratio (green luciferase fused to IkBa over red control in TMD8 lymphoma cells), 4 h
Procedure, shortened: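 Concentration-response series (up to 46 uM) were applied to TMD8 dual-reporter cells for 4 h at 37C with doxycycline. Green/red ratio, after filter-overlap correction, defined %Activity; red signal alone was normalised to basal cells and zero luminescence.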

[1] = measured here: CBR red luminescence, cell number
[2] = measured here: IkBa-CBG green luminescence

Row | SMILES | AC50 [1] | AC50 [2]
1 | Cc1cccc(C(=O)NCC(=O)N2CCN(c3ccc(Cl)cc3)CC2)c1 | 1 µM [rising, full curve, poor fit] | 
2 | O=C(NCN1C(=O)C2C3C=CC(C3)C2C1=O)Nc1ccccc1O (configuration not stated) | 4.47 µM [falling, full curve, poor fit] | 
3 | CCCc1cc(C(=O)Nc2cccc([N+](=O)[O-])c2)cs1 | 1.78 µM [rising, partial curve, poor fit] | 
4 | O=C(CCOc1ccccc1)NCc1ccccc1 | 20.6 µM [rising, single point] | 
5 | Cc1ccc2c(CN(C)Cc3ccc(Cl)cc3Cl)cc(=O)oc2c1 | 7.08 µM [rising, full curve] | 
6 | CCCc1cc(C(=O)N/N=C/c2ccc(C)o2)c2ccccc2n1 | 11.2 µM [falling, partial curve] | 
7 | O=C1CCN(Cc2nc(-c3ccc(Cl)cc3)no2)CCN1 | 14.1 µM [rising, single point] | 
8 | COc1ccc(F)cc1S(=O)(=O)NCCc1sc2nc(-c3ccc(F)cc3)nn2c1C | 14.1 µM [falling, partial curve, poor fit] | 
9 | Cc1ccc(C)c(NC(=O)c2cc(-c3cc(C)cc(C)c3O)n[nH]2)c1 | 20 µM [falling, partial curve, poor fit] | 
10 | CCCCNCC(O)(c1ccc(Cl)cc1)c1ccc(Cl)cc1 | 17.8 µM [falling, single point] | 
11 | O=C(NCCc1ccccc1)c1cccc(Br)c1 | 11.2 µM [falling, partial curve, poor fit] | 
12 | COC(=O)c1c(NC(=O)CN2CCC3(O)CCCCC3C2c2ccc(OC)cc2OC)sc(C)c1C (configuration not stated) | 29.1 µM [falling, single point] | 
13 | CC1=C(C(=O)OCC2CCCO2)C(c2ccccc2OC(C)C)C2=C(CC(c3ccco3)CC2=O)N1 (configuration not stated) | 6.51 µM [falling, partial curve, poor fit] | 
14 | COC(=O)Cc1ccc(NC(=S)NCc2ccccc2Cl)cc1 | 23.1 µM [rising, single point] | 
15 | CCC(=O)c1ccc(N2CCCCCC2)c(F)c1 | 23.1 µM [rising, single point] | 
16 | CCc1nnc(NC(=O)C2CCCN2C(=O)Nc2ccccc2OC)s1 (configuration not stated) | 0.00651 µM [falling, full curve, poor fit] | 
17 | Cc1ccc(C2C=NN(c3ccccc3)C2=O)cc1 (configuration not stated) | 8.91 µM [falling, partial curve] | 
18 | Cc1cccc(OCCn2c(=O)sc3ccccc32)c1 | 32.6 µM [rising, single point] | 
19 | CCOC(=O)C(NS(=O)(=O)c1ccc(C)cc1)(C(F)(F)F)P(=O)(OCC(C)C)OCC(C)C (configuration not stated) | 18.4 µM [rising, partial curve, poor fit] | 
20 | O=C(Cc1n[nH]c(=O)c2ccccc12)OCC(=O)c1ccc2c(c1)OCCO2 | 12.6 µM [rising, partial curve] | 7.08 µM [falling, partial curve]

Row | SMILES | AC50 [1] | AC50 [2]
21 | Cc1cccc(NC(=O)COC(=O)c2ccccc2SCC(=O)N2CCCC2)c1 | 1.78 µM [rising, partial curve, poor fit] | 
22 | Cc1cc(C)c2cc(CN(CCN(C)C)C(=O)Nc3ccccc3Cl)c(=O)[nH]c2c1 | 35.5 µM [falling, single point] | 
23 | CCCNc1ccc(C(=O)OCC)cc1[N+](=O)[O-] | 7.08 µM [rising, partial curve] | 11.2 µM [falling, partial curve]
24 | CCOC(=O)c1cc2c(nc1N)CCCC2 | 35.5 µM [rising, single point] | 
25 | C/C(=N\NC(=O)CSc1nc2ccccc2c(=O)n1-c1ccccc1C)c1cccs1 | 29.1 µM [rising, single point] | 
26 | CCOc1ccc2c(C)cc(=O)oc2c1OCC | 11.2 µM [rising, single point] | 
27 | O=c1[nH]c(N/N=C\c2ccc(F)cc2)nc2ccccc12 | 3.55 µM [falling, full curve] | 
28 | CCOC(=O)c1cc2sccc2n1CC(=O)Nc1ccc(OC)cc1 | 14.1 µM [rising, partial curve, poor fit] | 
29 | O=C(N/N=C/c1sc(N2CCOCC2)nc1-c1ccccc1)c1ccc(O)cc1 | 11.2 µM [falling, partial curve] | 
30 | O=C(CN1C(=O)c2cccc3cccc1c23)N1CCN(c2ccccc2)CC1 | 3.66 µM [falling, single point] | 
31 | COc1cccc(NC(C)=[N+](C)CCNS(=O)(=O)c2ccc(Cl)cc2)c1 | 0.355 µM [rising, full curve, poor fit] | 
32 | Cc1ccc2nc(SCc3nnc(-c4ccccc4[N+](=O)[O-])o3)c(C#N)cc2c1 | 2.51 µM [falling, partial curve] | 
33 | CCOC(=O)C(C)Oc1cccc2c(=O)n(CC(=O)NCc3ccc(F)cc3)ccc12 (configuration not stated) | 3.98 µM [rising, full curve] | 5.62 µM [falling, partial curve]
34 | Cc1cccc(NS(=O)(=O)c2ccc(NC(=O)CN(c3cc([N+](=O)[O-])ccc3C)S(C)(=O)=O)cc2)c1 | 20.6 µM [falling, single point] | 
35 | O=C(Nc1ccc(Cl)cc1)N1CCCN(Cc2ccc(F)cc2)C1 | 3.66 µM [falling, partial curve, poor fit] | 
36 | CCN1C(=O)c2cccc3c(NC(=O)c4ccc(OC)c(OC)c4)ccc1c23 | 20.6 µM [rising, partial curve] | 23.1 µM [falling, partial curve, poor fit]
37 | Cc1ccc(N2C(=O)CC(n3nc(C)cc3C)C2=O)cc1 (configuration not stated) | 29.1 µM [falling, single point] | 23.1 µM [rising, partial curve, poor fit]
38 | COC(=O)c1cc(C(=O)Nc2nnc(C3CC3)s2)cc([N+](=O)[O-])c1 | 4.61 µM [rising, full curve, poor fit] | 
39 | CCn1c(C(=O)N2CCC(C(=O)NCc3cccs3)CC2)cc2sccc21 | 0.0058 µM [rising, full curve, poor fit] | 
40 | COc1ccc(-c2noc(-c3ccc(Cl)cc3)n2)cc1 | 2.06 µM [rising, partial curve] | 

Row | SMILES | AC50 [1] | AC50 [2]
41 | CCCN(CC(=O)Nc1ccccc1OC)C(=O)c1ccc(COc2ccccc2)o1 | 23.1 µM [rising, partial curve, poor fit] | 
42 | CC1CCN(c2ccc3c(c2)S(=O)(=O)c2cccc(C(=O)NC4CCCCC4)c2C3=O)CC1 | 1.46 µM [falling, partial curve, poor fit] | 
43 | CC(=O)OCCCN1c2ccccc2Nc2nnc(-c3ccccc3)cc21 | 8.91 µM [falling, partial curve, poor fit] | 
44 | CCN1C(=O)[C@H]2[C@@H](c3ccc(-c4ccc(F)cc4)c(OC)c3)N[C@@](C)(C(=O)OC)[C@H]2C1=O | 13 µM [falling, partial curve] | 
45 | O=C(/C=C/c1ccco1)Nc1cccc(-c2nc3ccccc3[nH]2)c1 | 15.8 µM [falling, partial curve] | 
46 | O=C(CSc1n[nH]c(=O)[nH]c1=O)Nc1ccc(SC(F)F)cc1 | 29.1 µM [rising, single point] | 
47 | Cn1cc(Cl)c(C(=O)OCC(=O)Nc2nc(-c3ccc(Br)cc3)cs2)n1 | 2.06 µM [rising, partial curve, poor fit] | 
48 | O=C(Nc1ccc(NC(=O)c2ccco2)c(Cl)c1)c1ccccc1 | 0.708 µM [rising, full curve, poor fit] | 
49 | O=C(NC1CCN(Cc2ccccc2)CC1)c1cn(-c2ccccc2)nc1-c1cccnc1 | 11.6 µM [rising, partial curve, poor fit] | 
50 | O=C(Nn1c(COc2ccccc2)nc2ccccc2c1=O)C(Cl)(Cl)Cl | 14.1 µM [falling, partial curve] | 35.5 µM [falling, single point]
51 | CNc1cc(N2CCN(S(=O)(=O)N(C)C)CC2)ccc1[N+](=O)[O-] | 35.5 µM [rising, partial curve, poor fit] | 
52 | Cc1oc(-c2ccc(Cl)cc2)nc1CN1CCCC(C(=O)N2CCOCC2)C1 (configuration not stated) | 35.5 µM [falling, single point] | 
53 | O=C(Cc1ccc(-n2c(=O)c3ccccc3n(Cc3ccc(F)cc3)c2=O)cc1)NCC1CCCO1 (configuration not stated) |  | 4.61 µM [falling, partial curve]
54 | O=C(CNc1ccccc1)Nc1ccc(F)cc1 | 12.6 µM [falling, partial curve, poor fit] | 
55 | CC(C)(C)NC(=O)C(c1ccc(F)cc1)N(CCc1ccccc1)C(=O)c1ccn[nH]1 (configuration not stated) | 8.91 µM [falling, partial curve] | 11.2 µM [rising, partial curve]
56 | Cc1ccc(-c2c(C(=O)N/N=C/c3c[nH]c4ccccc34)nnn2-c2nonc2N)cc1 | 22.4 µM [falling, single point] | 
57 | CCOC(=O)C1=C(C)NC(C)=C(C(=O)OCC)C1C(=O)OCC(=O)NCc1ccccc1OC |  | 23.1 µM [falling, partial curve, poor fit]
58 | Cc1cccc(-c2c3c(=O)n(C)c(=O)n(C)c3cn2-c2ccccc2O)c1 | 35.5 µM [falling, single point] | 
59 | CN1CCN(CC(=O)c2cc(C(C)(C)C)c(O)c(C(C)(C)C)c2)CC1 | 35.5 µM [falling, single point] | 
60 | CCCn1c2ccccc2c2nnc(SCC(=O)Nc3ncccn3)nc21 | 6.51 µM [falling, single point] | 

An excerpt of these results, tab-delimited:
Row	SMILES	AC50 [1]	AC50 [2]
28	CCOC(=O)c1cc2sccc2n1CC(=O)Nc1ccc(OC)cc1	14.1 µM [rising, partial curve, poor fit]	
29	O=C(N/N=C/c1sc(N2CCOCC2)nc1-c1ccccc1)c1ccc(O)cc1	11.2 µM [falling, partial curve]	
30	O=C(CN1C(=O)c2cccc3cccc1c23)N1CCN(c2ccccc2)CC1	3.66 µM [falling, single point]	
31	COc1cccc(NC(C)=[N+](C)CCNS(=O)(=O)c2ccc(Cl)cc2)c1	0.355 µM [rising, full curve, poor fit]	
32	Cc1ccc2nc(SCc3nnc(-c4ccccc4[N+](=O)[O-])o3)c(C#N)cc2c1	2.51 µM [falling, partial curve]	
33	CCOC(=O)C(C)Oc1cccc2c(=O)n(CC(=O)NCc3ccc(F)cc3)ccc12 (configuration not stated)	3.98 µM [rising, full curve]	5.62 µM [falling, partial curve]
34	Cc1cccc(NS(=O)(=O)c2ccc(NC(=O)CN(c3cc([N+](=O)[O-])ccc3C)S(C)(=O)=O)cc2)c1	20.6 µM [falling, single point]	
35	O=C(Nc1ccc(Cl)cc1)N1CCCN(Cc2ccc(F)cc2)C1	3.66 µM [falling, partial curve, poor fit]	
36	CCN1C(=O)c2cccc3c(NC(=O)c4ccc(OC)c(OC)c4)ccc1c23	20.6 µM [rising, partial curve]	23.1 µM [falling, partial curve, poor fit]
37	Cc1ccc(N2C(=O)CC(n3nc(C)cc3C)C2=O)cc1 (configuration not stated)	29.1 µM [falling, single point]	23.1 µM [rising, partial curve, poor fit]
38	COC(=O)c1cc(C(=O)Nc2nnc(C3CC3)s2)cc([N+](=O)[O-])c1	4.61 µM [rising, full curve, poor fit]	
